Outcome data for one compound are collected here from the GenesisPotency data set.

Each structure is given as a SMILES string. Out of some 340,000 compounds screened, about 1,000 (0.29%) were called active. No stated cut-off is given here; in the data, inconclusive means inhibition above about 29% without an active follow-up result; inactive means below that. Some of the results follow. Results with a measured potency or affinity are listed apart.

The target in this assay is T1, Genome polyprotein, Dengue virus type 2 (strain Thailand/16681/1984) (UniProt P29990).
T1 sequence (whole entry): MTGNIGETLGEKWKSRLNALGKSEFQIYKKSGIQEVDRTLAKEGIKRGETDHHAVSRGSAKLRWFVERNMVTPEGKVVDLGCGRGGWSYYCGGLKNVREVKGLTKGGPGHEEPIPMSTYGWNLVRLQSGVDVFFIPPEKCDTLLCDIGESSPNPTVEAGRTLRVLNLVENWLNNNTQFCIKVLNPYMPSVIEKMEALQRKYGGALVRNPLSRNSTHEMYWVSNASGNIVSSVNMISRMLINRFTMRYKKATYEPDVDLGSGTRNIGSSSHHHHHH
Description: Primary and Confirmatory Screening for Flavivirus Genomic Capping Enzyme Inhibition.
Turning to `N#C/C(=C\c1ccc(OC(=O)c2ccc(Br)s2)cc1)c1nc2ccccc2[nH]1`, the call was inactive.
